The list shows a part of the results.

The assay has as its target T1, OsSMF1 (Oryza sativa, UniProt Q6ZLB0 1-436).
T1 sequence: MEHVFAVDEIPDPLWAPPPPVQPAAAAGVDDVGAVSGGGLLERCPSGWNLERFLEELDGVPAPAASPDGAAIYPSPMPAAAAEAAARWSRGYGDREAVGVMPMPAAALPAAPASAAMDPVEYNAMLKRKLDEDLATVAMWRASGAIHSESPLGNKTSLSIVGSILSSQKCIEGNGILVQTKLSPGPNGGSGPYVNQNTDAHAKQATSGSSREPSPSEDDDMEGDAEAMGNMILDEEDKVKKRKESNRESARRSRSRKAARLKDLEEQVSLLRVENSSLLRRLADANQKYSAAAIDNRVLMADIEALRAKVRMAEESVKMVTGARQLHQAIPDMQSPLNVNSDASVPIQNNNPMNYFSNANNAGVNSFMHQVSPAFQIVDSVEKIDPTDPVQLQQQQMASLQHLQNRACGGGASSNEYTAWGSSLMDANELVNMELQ
Kind of assay: protein-binding microarray (RPBM); PBS, 2% BSA, 51.3 ng/ul salmon testes DNA, 50 uM zinc acetate, 200 nM TF, 25 C, 1 h; high values mean tight binding. As to conditions: protein: recombinant; tags: N-terminal polyhistidine and DsRed monomer fusion (pET32a); chain copies: 2; label: CyDye5-dUTP incorporated in the synthesized complementary strand; 3' TTTTT single-stranded linker to array surface; dsDNA, one strand shown. The essentials: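 Binding signal is reported as fluorescence intensity per feature (arbitrary units) from an Axon 4000B scanner. Incubation used 200 nM of each Ni–NTA-purified, N-terminally polyhistidine- and DsRed-fused transcription factor from E. coli BL21-CodonPlus on a double-stranded custom Agilent array for 1 h at 25 °C, with 50 µM zinc acetate in the buffer, followed by washing.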
“CTCGATTCCCCTCTCCCCTCACTTTCTCTCTCTCTCTCTCCGGAGTCACCTAGTGCAG”: the binding signal was 28300 fluorescence intensity (a.u.).

“GATTCTTTTCGTGACGTTTCACGTGTCGATCAGCAGTTGCCGGAGTCACCTAGTGCAG”: the binding signal is 4470 fluorescence intensity (a.u.).

For “CCCTCCGGTGGCCACCTCACCCATGGCTACTACACCGCGGCGGAGTCACCTAGTGCAG”, the binding signal was 5030 fluorescence intensity (a.u.).

In the case of “TGATCTGGAATGTGGCGGTTACATGGGCCTGAACTGATGTCGGAGTCACCTAGTGCAG”, the binding signal was 13800 fluorescence intensity (a.u.).

As for “GAGCTTCCTATCGCGCCGCCGCGTGCGTACGTGTTTGATCCGGAGTCACCTAGTGCAG”, the binding signal is 6120 fluorescence intensity (a.u.).

With “TCGCCTTGCCGCGCCCGCGCATTCCCGCAAACACCTCGCCCGGAGTCACCTAGTGCAG”, the binding signal was 29200 fluorescence intensity (a.u.).

Consider “TCAACTCCACGCTAGCATCTTCATTGTCGATTAGCAAAATCGGAGTCACCTAGTGCAG”, for which the binding signal was 3480 fluorescence intensity (a.u.).

For the sequence “AATATGGTGGTGGCACTACCACCTCAACATTCTTTTACACCGGAGTCACCTAGTGCAG”, the binding signal is 3500 fluorescence intensity (a.u.).

“GATCCAATTGCCACATAAACTTCACGTCAATACCACGTGGCGGAGTCACCTAGTGCAG”: the binding signal was 8820 fluorescence intensity (a.u.).

On to “CCGTCGACCACTTCGGCGGCCGCGTCACCATCGGCGACGTCGGAGTCACCTAGTGCAG”, for which the binding signal was 12300 fluorescence intensity (a.u.).

In the case of “GCTTGTGTGCTGATCAGTAGAATAGACTGGTTTCTCAACACGGAGTCACCTAGTGCAG”, the binding signal was 34300 fluorescence intensity (a.u.).

In the case of “CGGGATAATATCTCTGAGATATCGTCCGATACCAGTATCACGGAGTCACCTAGTGCAG”, the binding signal was 15600 fluorescence intensity (a.u.).

Regarding “CCGTGAGATGACTTGGTTGTTCCACATAGGACAATGACATCGGAGTCACCTAGTGCAG”, the binding signal is 3620 fluorescence intensity (a.u.).

As to “GAGTATATATGTACTAATCAGAAATCTGACAAGGCAACGTCGGAGTCACCTAGTGCAG”, the binding signal was 4330 fluorescence intensity (a.u.).

Turning to “ATGACAAGTTGTAGTTGACGCAGCACTTGTTAAGTTTCTTCGGAGTCACCTAGTGCAG”, the binding signal is 5140 fluorescence intensity (a.u.).

With “AGGAATGCATTTGTGGTGGGTGCAGGTGCGCGGGTGGCGACGGAGTCACCTAGTGCAG”, the binding signal was 3340 fluorescence intensity (a.u.).

Regarding “CATCTCTATCCATGTATTCATTAACACTGATGCTACATCTCGGAGTCACCTAGTGCAG”, the binding signal is 3310 fluorescence intensity (a.u.).

“AAACCTCTATCCACGTCATATTTTATTTCTTGCAAGTATTCGGAGTCACCTAGTGCAG”: the binding signal is 20600 fluorescence intensity (a.u.).

As to “GGCGGAGACGCGGGCGTGGCTCGGCGGCCTGCTAGTGTGACGGAGTCACCTAGTGCAG”, the binding signal was 3340 fluorescence intensity (a.u.).

With “CCACGCTGACTTAGCCGCCGCGTCAGACAAAACCGGGATCCGGAGTCACCTAGTGCAG”, the binding signal was 5500 fluorescence intensity (a.u.).

As to “GAGCGAGTACAATAGCAGTCTACAAGTAAGTTGTAATCACCGGAGTCACCTAGTGCAG”, the binding signal is 17800 fluorescence intensity (a.u.).

On to “TGTGTATTATGTATTAATTTGATGAGGTATATTCACCATCCGGAGTCACCTAGTGCAG”, for which the binding signal is 24300 fluorescence intensity (a.u.).

On to “ATGATTTAATTACAAACAGATCCAGACTATGCCGTCGTGGCGGAGTCACCTAGTGCAG”, for which the binding signal was 7340 fluorescence intensity (a.u.).

With “CAAACCAGGCTTGCAAGTTGTAACATAGAGGTTGGTAGGTCGGAGTCACCTAGTGCAG”, the binding signal is 3270 fluorescence intensity (a.u.).

“GACCGTTAAATATTTTAAAATGACTATATTACCCATCCTACGGAGTCACCTAGTGCAG”: the binding signal was 3250 fluorescence intensity (a.u.).

Turning to “TCTCTCACTGCATAGACACCTGTCATCCATACATCCATCTCGGAGTCACCTAGTGCAG”, the binding signal was 3260 fluorescence intensity (a.u.).

With “TATTCAATGCTTTTGTATGTGCTGGAATTTGTCAATGGTGCGGAGTCACCTAGTGCAG”, the binding signal is 4420 fluorescence intensity (a.u.).

With “GCCAGATCTGGGCTCGCCGACGCCGTTGGCAGCCTCCTCCCGGAGTCACCTAGTGCAG”, the binding signal is 3190 fluorescence intensity (a.u.).

With “TGTCAATAATGCATCCTGCAGCTAACATCAAATGACATGGCGGAGTCACCTAGTGCAG”, the binding signal was 3150 fluorescence intensity (a.u.).

“GATTTGTTTTGGTGGCCGCCGGGCCCAACCTGGCATCAACCGGAGTCACCTAGTGCAG”: the binding signal is 6680 fluorescence intensity (a.u.).

In the case of “CGTGAGGGCACGTTATGTCGTGGGGTGTACAAAGAAAGGACGGAGTCACCTAGTGCAG”, the binding signal is 3170 fluorescence intensity (a.u.).

In the case of “CTTAATGTGCCGTGTTACTGCCATGTAAGCTGGACGTTATCGGAGTCACCTAGTGCAG”, the binding signal is 4920 fluorescence intensity (a.u.).

“TGCAGACATGGGGACAAATTGTCACGACGACAGCCTGGATCGGAGTCACCTAGTGCAG”: the binding signal was 3710 fluorescence intensity (a.u.).

As to “CAGATCGAATTGCCACGTAATGCCACGTAAGTGCCACGTCCGGAGTCACCTAGTGCAG”, the binding signal was 32500 fluorescence intensity (a.u.).

On to “ACACCCAGCTGCAATATGGATCACCAAACACCTCGATCCACGGAGTCACCTAGTGCAG”, for which the binding signal was 3780 fluorescence intensity (a.u.).

On to “ATAAAGAGTCATCAGGAGTACACGTTAGACATGCAAATTCCGGAGTCACCTAGTGCAG”, for which the binding signal is 4770 fluorescence intensity (a.u.).

For “CCACCGCCGCGTCCATGGCCGCCACCTTCGTCAGCCTCACCGGAGTCACCTAGTGCAG”, the binding signal was 3220 fluorescence intensity (a.u.).

For “ATCGTTTCGCCGTCGATTTGCTGTCACCATACCCATGTAGCGGAGTCACCTAGTGCAG”, the binding signal is 3850 fluorescence intensity (a.u.).

With “ATATACTTAAGTGCCAAGTGTCAATATTTGTGGTTTTCTGCGGAGTCACCTAGTGCAG”, the binding signal is 4500 fluorescence intensity (a.u.).

Turning to “GAGTGTGCTCCCCTAACCCACTCCCAATATTGCCACTCCCCGGAGTCACCTAGTGCAG”, the binding signal is 3240 fluorescence intensity (a.u.).

Consider “CAATCATATAATTGCTGCATGGATGAGCATATAAGTCGCACGGAGTCACCTAGTGCAG”, for which the binding signal is 3530 fluorescence intensity (a.u.).

Regarding “GGAGGAGGAGGAGGTAGGGGAAATCCCCGTCGGCCGTCGGCGGAGTCACCTAGTGCAG”, the binding signal was 4610 fluorescence intensity (a.u.).
